Measurements reported in paper PMC3628344.
These are yes or no findings as the source states them, for the method shown. In cells and extracts the contact can be indirect. Some results given as binding are weak or reduced against the parent protein; the word gives no strength. For part of these data: Where a sequence is shown, tags or fusion partners need not be part of it.

How the values were obtained:
[1] = biological target: YAP (endogenous, SF268 cells) (human (endogenous in SF268)) (UniProt P46937); assay: co-IP; IP of endogenous YAP from SF268 cell lysates (RIPA buffer, 4°C), blot for endogenous PTPN14
[2] = biological target: V5-tagged YAP WW1 mutant (human) (UniProt P46937); assay: co-IP; 293A cells transiently co-transfected with GST-PTPN14 and V5-YAP constructs; V5 IP (RIPA buffer, 4°C), blotted for GST
[3] = biological target: V5-tagged wild type YAP (human) (UniProt P46937); assay: as above

binding [1] | binding [2] | binding [3] | Binder
binds |  |  | PTPN14 (endogenous, SF268 cells) (protein, UniProt Q15678 1-1187) MPFGLKLRRTRRYNVLSKNCFVTRIRLLDSNVIECTLSVESTGQECLEAVAQRLELRETHYFGLWFLSKSQQARWVELEKPLKKHLDKFANEPLLFFGVMFYVPNVSWLQQEATRYQYYLQVKKDVLEGRLRCTLDQVIRLAGLAVQADFGDYNQFDSQDFLREYVLFPMDLALEEAVLEELTQKVAQEHKAHSGILPAEAELMYINEVERLDGFGQEIFPVKDNHGNCVHLGIFFMGIFVRNRIGRQAVIYRWNDMGNITHNKSTILVELINKEETALFHTDDIENAKYISRLFATRHKFYKQNKICTEQSNSPPPIRRQPTWSRSSLPRQQPYILPPVHVQCGEHYSETHTSQDSIFHGNEEALYCNSHNSLDLNYLNGTVTNGSVCSVHSVNSLNCSQSFIQASPVSSNLSIPGSDIMRADYIPSHRHSAIIVPSYRPTPDYETVMRQMKRGILHTDSQSQSLRNLNIINTHAYNQPEDLVYSQPEMRERHPYTVPYGPQGVYSNKLVSPSDQRNPKNNVVPSKPGASAISHTVSTPELANMQLQGSHNYSTAHMLKNYLFRPPPPYPRPRPATSTPDLASHRHKYVSGSSPDLVTRKVQLSVKTFQEDSSPVVHQSLQEVSEPLTATKHHGTVNKRHSLEVMNSMVRGMEAMTLKSLHLPMARRNTLREQGPPEEGSGSHEVPQLPQYHHKKTFSDATMLIHSSESEEEEEEAPESVPQIPMLREKMEYSAQLQAALARIPNKPPPEYPGPRKSVSNGALRQDQASLPPAMARARVLRHGPAKAISMSRTDPPAVNGASLGPSISEPDLTSVKERVKKEPVKERPVSEMFSLEDSIIEREMMIRNLEKQKMAGLEAQKRPLMLAALNGLSVARVSGREENRVDATRVPMDERFRTLKKKLEEGMVFTEYEQIPKKKANGIFSTAALPENAERSRIREVVPYEENRVELIPTKENNTGYINASHIKVVVGGAEWHYIATQGPLPHTCHDFWQMVWEQGVNVIAMVTAEEEGGRTKSHRYWPKLGSKHSSATYGKFKVTTKFRTDSVCYATTGLKVKHLLSGQERTVWHLQYTDWPDHGCPEDVQGFLSYLEEIQSVRRHTNSMLEGTKNRHPPIVVHCSAGVGRTGVLILSELMIYCLEHNEKVEVPMMLRLLREQRMFMIQTIAQYKFVYQVLIQFLQNSRLI
 | binds | binds | GST-tagged wild type PTPN14 (protein, UniProt Q15678 1-1187) MPFGLKLRRTRRYNVLSKNCFVTRIRLLDSNVIECTLSVESTGQECLEAVAQRLELRETHYFGLWFLSKSQQARWVELEKPLKKHLDKFANEPLLFFGVMFYVPNVSWLQQEATRYQYYLQVKKDVLEGRLRCTLDQVIRLAGLAVQADFGDYNQFDSQDFLREYVLFPMDLALEEAVLEELTQKVAQEHKAHSGILPAEAELMYINEVERLDGFGQEIFPVKDNHGNCVHLGIFFMGIFVRNRIGRQAVIYRWNDMGNITHNKSTILVELINKEETALFHTDDIENAKYISRLFATRHKFYKQNKICTEQSNSPPPIRRQPTWSRSSLPRQQPYILPPVHVQCGEHYSETHTSQDSIFHGNEEALYCNSHNSLDLNYLNGTVTNGSVCSVHSVNSLNCSQSFIQASPVSSNLSIPGSDIMRADYIPSHRHSAIIVPSYRPTPDYETVMRQMKRGILHTDSQSQSLRNLNIINTHAYNQPEDLVYSQPEMRERHPYTVPYGPQGVYSNKLVSPSDQRNPKNNVVPSKPGASAISHTVSTPELANMQLQGSHNYSTAHMLKNYLFRPPPPYPRPRPATSTPDLASHRHKYVSGSSPDLVTRKVQLSVKTFQEDSSPVVHQSLQEVSEPLTATKHHGTVNKRHSLEVMNSMVRGMEAMTLKSLHLPMARRNTLREQGPPEEGSGSHEVPQLPQYHHKKTFSDATMLIHSSESEEEEEEAPESVPQIPMLREKMEYSAQLQAALARIPNKPPPEYPGPRKSVSNGALRQDQASLPPAMARARVLRHGPAKAISMSRTDPPAVNGASLGPSISEPDLTSVKERVKKEPVKERPVSEMFSLEDSIIEREMMIRNLEKQKMAGLEAQKRPLMLAALNGLSVARVSGREENRVDATRVPMDERFRTLKKKLEEGMVFTEYEQIPKKKANGIFSTAALPENAERSRIREVVPYEENRVELIPTKENNTGYINASHIKVVVGGAEWHYIATQGPLPHTCHDFWQMVWEQGVNVIAMVTAEEEGGRTKSHRYWPKLGSKHSSATYGKFKVTTKFRTDSVCYATTGLKVKHLLSGQERTVWHLQYTDWPDHGCPEDVQGFLSYLEEIQSVRRHTNSMLEGTKNRHPPIVVHCSAGVGRTGVLILSELMIYCLEHNEKVEVPMMLRLLREQRMFMIQTIAQYKFVYQVLIQFLQNSRLI
